Reference: paper PMC12743421
No constants are given. Whether binding was seen depends on the method and setting. In cells and extracts the contact can be indirect. A yes stands for co-enrichment or nearness to the bait. Other partners may have been found.

Chains of the proteins cited; added tags and fusions are not shown.
UniProt F1LP64: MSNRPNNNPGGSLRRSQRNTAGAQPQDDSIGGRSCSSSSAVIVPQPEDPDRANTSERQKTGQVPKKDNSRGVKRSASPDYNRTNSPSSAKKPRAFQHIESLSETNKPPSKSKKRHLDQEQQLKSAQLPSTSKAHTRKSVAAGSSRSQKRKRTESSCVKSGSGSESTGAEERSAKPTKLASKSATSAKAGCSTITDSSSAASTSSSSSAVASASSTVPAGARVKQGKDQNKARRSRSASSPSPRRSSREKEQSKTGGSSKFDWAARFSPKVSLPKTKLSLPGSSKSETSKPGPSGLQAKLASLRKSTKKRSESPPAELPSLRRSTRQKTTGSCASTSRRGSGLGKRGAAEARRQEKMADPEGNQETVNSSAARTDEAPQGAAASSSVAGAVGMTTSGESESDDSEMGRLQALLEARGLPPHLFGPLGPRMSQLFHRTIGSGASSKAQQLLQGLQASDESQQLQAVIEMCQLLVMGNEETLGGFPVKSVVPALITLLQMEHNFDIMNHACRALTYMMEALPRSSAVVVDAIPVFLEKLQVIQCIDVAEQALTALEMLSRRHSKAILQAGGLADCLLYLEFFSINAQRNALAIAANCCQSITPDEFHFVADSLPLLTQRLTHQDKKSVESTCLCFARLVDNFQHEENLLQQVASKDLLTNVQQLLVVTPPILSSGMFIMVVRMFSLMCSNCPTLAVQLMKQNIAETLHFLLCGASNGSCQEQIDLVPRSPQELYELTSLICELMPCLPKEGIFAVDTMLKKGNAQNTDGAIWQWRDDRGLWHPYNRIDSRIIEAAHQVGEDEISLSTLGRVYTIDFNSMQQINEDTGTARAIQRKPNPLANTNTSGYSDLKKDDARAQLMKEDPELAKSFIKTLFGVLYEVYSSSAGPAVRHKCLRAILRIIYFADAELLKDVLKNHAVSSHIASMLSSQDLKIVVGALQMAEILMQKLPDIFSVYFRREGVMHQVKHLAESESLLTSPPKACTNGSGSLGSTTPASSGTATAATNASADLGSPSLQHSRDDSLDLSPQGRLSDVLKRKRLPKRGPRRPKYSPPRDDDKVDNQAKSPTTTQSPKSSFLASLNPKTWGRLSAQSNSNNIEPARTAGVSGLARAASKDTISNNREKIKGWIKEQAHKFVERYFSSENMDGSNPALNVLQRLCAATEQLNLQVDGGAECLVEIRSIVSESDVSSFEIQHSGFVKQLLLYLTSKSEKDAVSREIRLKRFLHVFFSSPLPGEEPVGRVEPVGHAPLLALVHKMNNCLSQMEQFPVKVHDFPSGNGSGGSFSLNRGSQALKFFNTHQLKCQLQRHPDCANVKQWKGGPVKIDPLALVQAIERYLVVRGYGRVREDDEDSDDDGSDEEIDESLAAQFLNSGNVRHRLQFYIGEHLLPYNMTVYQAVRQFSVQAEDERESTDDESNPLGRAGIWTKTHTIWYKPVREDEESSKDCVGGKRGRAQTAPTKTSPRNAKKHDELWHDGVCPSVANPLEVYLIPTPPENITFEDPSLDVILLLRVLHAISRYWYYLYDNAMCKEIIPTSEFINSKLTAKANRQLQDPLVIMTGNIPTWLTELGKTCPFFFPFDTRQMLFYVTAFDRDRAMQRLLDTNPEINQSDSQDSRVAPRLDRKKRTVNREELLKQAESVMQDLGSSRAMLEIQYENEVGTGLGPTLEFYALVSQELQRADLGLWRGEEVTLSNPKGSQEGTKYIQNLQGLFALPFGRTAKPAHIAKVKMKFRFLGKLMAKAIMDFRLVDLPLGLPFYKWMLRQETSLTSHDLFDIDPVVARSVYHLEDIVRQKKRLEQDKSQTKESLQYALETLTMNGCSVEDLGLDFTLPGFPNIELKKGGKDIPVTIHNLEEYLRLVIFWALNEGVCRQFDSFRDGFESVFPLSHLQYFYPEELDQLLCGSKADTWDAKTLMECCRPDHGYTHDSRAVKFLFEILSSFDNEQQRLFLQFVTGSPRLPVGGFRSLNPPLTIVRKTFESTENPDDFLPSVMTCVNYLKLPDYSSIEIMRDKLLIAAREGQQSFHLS

Target: T1, Cyclin-dependent kinase 4 (rat (endogenous in primary ADSCs)) (UniProt P35426)
T1 sequence: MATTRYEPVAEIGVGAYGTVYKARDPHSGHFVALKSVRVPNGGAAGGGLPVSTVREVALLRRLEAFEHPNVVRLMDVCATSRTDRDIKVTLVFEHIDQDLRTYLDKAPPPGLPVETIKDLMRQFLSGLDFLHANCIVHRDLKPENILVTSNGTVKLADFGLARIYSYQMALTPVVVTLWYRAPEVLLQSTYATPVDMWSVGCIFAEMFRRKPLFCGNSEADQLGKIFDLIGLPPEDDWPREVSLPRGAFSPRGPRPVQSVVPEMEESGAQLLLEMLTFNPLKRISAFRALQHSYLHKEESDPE
Test: affinity purification with mass spectrometry; samples precipitated with the anti-CDK4 antibody, digested with trypsin, nano-LC and Q-Exactive MS, Proteome Discoverer 2.1; screen for ubiquitination regulators (Venn diagram)

Row | binding | Substance
1 | binds | E3 ubiquitin ligase TRIP12 (from UniProt F1LP64 1-2025) (enzyme)
2 | binds | deubiquitinase OTUD4 (rat (endogenous in primary ADSCs)) (enzyme)
